The record followed here is PMC8884909.

Sequences of proteins named here, by UniProt entry; tags and fusion partners are left off. Residues count along the entry.
UniProt Q9P1W8, residues 29-387: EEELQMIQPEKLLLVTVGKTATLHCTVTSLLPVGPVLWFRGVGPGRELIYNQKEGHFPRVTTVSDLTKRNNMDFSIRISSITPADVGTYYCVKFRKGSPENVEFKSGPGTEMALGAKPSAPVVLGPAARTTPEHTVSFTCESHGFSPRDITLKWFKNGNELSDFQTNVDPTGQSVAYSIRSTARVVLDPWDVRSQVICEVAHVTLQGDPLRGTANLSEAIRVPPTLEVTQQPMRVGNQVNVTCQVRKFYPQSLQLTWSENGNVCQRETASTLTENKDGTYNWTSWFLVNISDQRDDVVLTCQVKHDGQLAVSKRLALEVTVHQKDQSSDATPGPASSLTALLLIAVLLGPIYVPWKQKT

These are yes or no findings as the source states them, for the method shown. In cells and extracts the contact can be indirect. Some results given as binding are weak or reduced against the parent protein; the word gives no strength.

The target in this assay is T1, MST1 (macrophage stimulating 1; also known as serine/threonine kinase 4, STK4) (human (endogenous in A549 and H1975)) (UniProt Q13043).
T1 sequence: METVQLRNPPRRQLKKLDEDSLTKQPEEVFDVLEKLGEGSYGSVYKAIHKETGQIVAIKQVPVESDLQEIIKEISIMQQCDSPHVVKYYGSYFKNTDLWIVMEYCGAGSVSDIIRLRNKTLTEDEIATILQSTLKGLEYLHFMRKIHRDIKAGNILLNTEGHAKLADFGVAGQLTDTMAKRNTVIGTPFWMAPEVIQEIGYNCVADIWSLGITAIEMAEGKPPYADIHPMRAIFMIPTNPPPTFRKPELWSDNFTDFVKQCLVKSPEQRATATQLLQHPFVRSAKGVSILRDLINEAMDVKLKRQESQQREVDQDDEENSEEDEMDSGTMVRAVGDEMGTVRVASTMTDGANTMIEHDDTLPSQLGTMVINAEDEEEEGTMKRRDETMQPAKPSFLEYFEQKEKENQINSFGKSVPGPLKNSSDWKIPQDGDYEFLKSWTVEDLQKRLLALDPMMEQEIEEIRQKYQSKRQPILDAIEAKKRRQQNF
Description: co-IP; endogenous proteins precipitated from A549 and H1975 cell lysates with specific antibodies (anti-SIRPγ, anti-MST1, anti-PP2A), immunoblot. On the technique in general: Immunoblotting shows a protein as a band on a membrane.

Turning to “signal regulatory protein γ (SIRPγ) (from UniProt Q9P1W8 29-387)”, the binding result is reported as “binds”.
